Data reported in patent US7192962B2, “Xanthine phosphodiesterase V inhibitor polymorphs” (Schering Corporation, priority 2002, dated 2007).
Some entries share one result that the patent states for a list of compounds.

What was measured:
PDE V isoenzyme = PDE V isoenzyme (Homo sapiens, UniProt O76074); assay: PDE V isoenzyme inhibition; type: biochemical; conditions: isoenzyme selectivity
From the text: Forms 1 and 2 of Compound 13 are each useful for inhibiting PDE V isoenzymes. Their isoenzyme activities (potencies) and isoenzyme selectivities can be measured by the PDE V IC50 value, which is the concentration (in nM) of compound required to provide 50% inhibition of PDE V isoenzyme. […] Similarly, an IC50 value may be obtained for other PDE isoenzymes, such as the PDE VI isoenzyme. Isoenzyme selectivity in this respect may be defined as the activity of a PDE inhibitor compound for a particular PDE isoenzyme as opposed to another PDE isoenzyme, for example, the activity of a compound to inhibit a PDE V isoenzyme compared to the activity of the same compound to inhibit a PDE VI isoenzyme.

PDE VI isoenzyme = PDE VI isoenzyme inhibition; type: biochemical

Structure (SMILES): CCn1c(=O)c2c(nc(N[C@@H]3CCC[C@H]3O)n2Cc2ccc(OC)c(Br)c2)n(CCO)c1=O [Form 1 of Compound 13, 1-ethyl-3,7-dihydro-8-[(1R,2R) -(hydroxycyclopentyl)amino]-3-(2-hydroxyethyl)-7-[(3-bromo-4-methoxyphenyl)methyl]-1H-Purine-2,6-dione]
- PDE VI/PDE V ratio (PDE VI IC50/PDE V IC50) (PDE V isoenzyme): greater than 140
- IC50 (PDE VI isoenzyme): > 350 nM
